Key:
[1] = test system: PCE/TCE plume in ground water; assay: Sodium lactate injection pilot test, Tennessee Air National Guard Site, Memphis (Example 3)
Text: Site Background. A site-wide Remedial Investigation (RI) identified a chlorinated solvent plume in a sandy aquifer approximately 35 to 60 feet (10.7 to 18.3 m) below ground surface at the 164th Airlift Wing at the Tennessee Air National Guard Site, Memphis, Tenn. The plume area targeted for treatment was over 2 acres (0.81 hectares). This unconfined saturated interval is overlain by an inorganic loess vadose zone and is separated from the deeper regional aquifer by a clay unit. PCE concentrations ranged from 5 to 1,000 μg/L in the target area, while TCE ranged from 100 to greater than 15,000 μg/L in the injection/monitoring wells. […] A pilot test of a sodium lactate injection system to enhance natural reductive dechlorination in the groundwater was approved by the Tennessee Department of Environment and Conservation, the Memphis and Shelby County Health Department, and the Shelby County Ground Water Control Board.
System Design. A three-dimensional model to simulate groundwater flow was developed using the MODFLOW simulator (U.S. Geological Survey). Once calibrated, model simulations were used to determine the optimal injection well locations, as well as the rate and duration of injection. Based on the results of other sodium lactate injection sites, a period of 60 days between injections was assumed. The optimal configuration was determined to be a 9-well injection system at an injection rate of 10 gallons per minute (gpm; 37.8 liters/minute) for 5 days.
Potable water was mixed with 60% sodium lactate to create a 1% solution. An existing 8-inch (20.3-cm) water line was tapped and connected to the distribution control header via a 4-inch (10.2-cm) line, which was housed in a portable 12-ft×14-ft (3.6-m×4.3-m) building. A double-check valve assembly was installed on the 4-inch (10.2-cm)water line to prevent back-siphoning of the injection solution into the 8-inch (20.3-cm) potable water line. Following a mixing zone with the potable water, the resulting 1% solution was delivered to the nine injection wells. […]

[2] = test system: chlorinated ethenes (PCE, TCE) in groundwater; assay: Biostimulation pilot test, IR Site 40, Seal Beach (Example 4)
Procedure: A biostimulation pilot-test program for in situ anaerobic bioremediation of chlorinated ethenes in groundwater was conducted at Installation Restoration (IR) Program Site 40, Naval Weapons Station Seal Beach, Calif. IR Site 40 includes a concrete pit in a locomotive shop building and a gravel area north of and adjacent to the building. Oil and solvents spilled during locomotive maintenance collected in the pit and discharged to the gravel area via a drainpipe (FIG. 11). Groundwater was contaminated with chlorinated solvents, primarily PCE and trichloroethene (TCE). The plume extends over 100 meters (m) downgradient of the source area and is generally limited in extent to approximately 20 m below ground surface. The groundwater gradient is relatively flat and is influenced by tidal fluctuations. The net gradient direction is southeasterly. The Seal Beach National Wildlife Refuge lies downgradient of the site.
The tests were conducted in the area interpreted to have the highest PCE concentrations in groundwater. The tests were conducted over an 8-month period from August 2001 through mid-March 2002. Approximately 210,000 liters (55,500 gallons) of 3 percent sodium lactate solution was injected. A direct injection system was selected over recirculation to avoid reinjection of untreated water into the test cell. […]
Effects were monitored in seven wells in the pilot-test area. […] Weekly groundwater samples were collected during and analyzed on-site using field test kits for sulfate, ferrous iron, alkalinity, chemical oxygen demand (COD) (Hach, Loveland, Colo.), nitrate, and carbon dioxide (CHEMetrics, Calverton, Va.) and direct reading instrumentation for pH, temperature, conductivity, oxidation-reduction potential, and dissolved oxygen (YSI, Yellow Springs, Ohio). Monthly groundwater samples were analyzed off-site for volatile organic compounds, alkalinity, COD, anions, cations, total dissolved solids (Columbia Analytical Services, Kelso, Wash.), and dissolved gases (Performance Analytical, Simi Valley, Calif.). […]

With `CC(O)C(=O)[O-].[Na+]` (stereo not drawn) [sodium lactate] the “COD level (highest)” value ([1]; first sampling event about 6 weeks after injection, 1 monitoring well) was ≤ 4,000 mg/L, the COD maximum concentration ([1]; monitoring well 03-010MW, during the monitoring period) was 319 mg/L and the COD level ([1]; wells IW-1 and IW-2) was > 2,000 mg/L. For the same compound, the sulfate ([2]; after one to three months, depending on distance from the injection well) was “reduced to below detection limits”, the “groundwater pH (lowest)” value ([2]; dropped from approximately 7.5 during lactate fermentation) was “below 6” and the oxidation-reduction potential ([2]; dropped from approximately 150) was ~−300 millivolts.
